Data source: PubChem BioAssay AID1053209 (Peter MacCallum Cancer Centre, 2014)
Shown is an unselected part of about 1,580 deposited reagents. 207 of all reagents (13%) count as active. 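Rows are single siRNAs; four siRNAs per gene were tested, a gene counting as confirmed only when at least two agree.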 A number with no mark means an inactive call. Reagents against one gene are numbered here. Not all columns of the deposit are shown. No sequences are given here.

Assay: 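Knock-downs that sensitise mouse osteosarcoma cells to doxorubicin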 (follow-up of hits)
Cells: mouse primary osteosarcoma cells
Knock-down reagent: single siRNA against mouse genes, 25 nM (text also states 40 nM)
Time to read-out: about 120 h (48 h before drug, then 72 h with drug)
Treatment: doxorubicin 100 nM (about IC30-40), added 48 h after transfection, for 72 h
Read-out: 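ATP-based luminescent viability, with or without doxorubicin, relative to non-targeting control NT1, mean of two replicates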
Direction: viability with doxorubicin, vs NT1: higher = more viable cells under doxorubicin; viability without drug, vs NT1: higher = more viable cells without drug
Hit rule: 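Counted as active (class LC dox) if viability falls to 0.7 of NT1 or below under doxorubicin but stays within 0.7 to 1.1 without drug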

gene	reagent	combined effect class	viability with doxorubicin, vs NT1	viability without drug, vs NT1
Krtap15-1 (keratin associated protein 15-1)	1	normal viability with and without drug	1.01	0.92
Krtap15-1 (keratin associated protein 15-1)	2	normal viability with and without drug	0.84	0.93
Krtap15-1 (keratin associated protein 15-1)	3	normal viability with and without drug	0.9	0.98
Krtap15-1 (keratin associated protein 15-1)	4	normal viability with and without drug	0.92	0.99
Rplp0 (ribosomal protein lateral stalk subunit P0)	1	low viability only with doxorubicin; normal without drug (active)	0.63	0.78
Rplp0 (ribosomal protein lateral stalk subunit P0)	2	low viability with and without drug	0.31	0.38
Rplp0 (ribosomal protein lateral stalk subunit P0)	3	normal viability with and without drug	0.97	0.88
Rplp0 (ribosomal protein lateral stalk subunit P0)	4	low viability with and without drug	0.44	0.54
Nup160 (nucleoporin 160)	1	low viability only with doxorubicin; normal without drug (active)	0.58	0.71
Nup160 (nucleoporin 160)	2	low viability with and without drug	0.44	0.57
Nup160 (nucleoporin 160)	3	low viability with and without drug	0.48	0.66
Nup160 (nucleoporin 160)	4	normal viability with and without drug	0.97	0.95
Mon1a (MON1 homolog A, secretory traffciking associated)	1	normal viability with and without drug	0.84	0.94
Mon1a (MON1 homolog A, secretory traffciking associated)	2	normal viability with and without drug	0.79	1
Mon1a (MON1 homolog A, secretory traffciking associated)	3	normal viability with and without drug	0.92	0.97
Mon1a (MON1 homolog A, secretory traffciking associated)	4	high viability only without drug	1.02	1.16
Krtap13-21 (keratin associated protein 13-21)	1	normal viability with and without drug	0.86	0.94
Krtap13-21 (keratin associated protein 13-21)	2	low viability with and without drug	0.38	0.58
Krtap13-21 (keratin associated protein 13-21)	3	normal viability with and without drug	0.88	1.06
Krtap13-21 (keratin associated protein 13-21)	4	high viability only with doxorubicin	1.17	0.98
Med26 (mediator complex subunit 26)	1	normal viability with and without drug	0.94	0.96
Med26 (mediator complex subunit 26)	2	normal viability with and without drug	0.72	0.88
Med26 (mediator complex subunit 26)	3	normal viability with and without drug	0.76	0.89
Med26 (mediator complex subunit 26)	4	low viability with and without drug	0.34	0.6
Rassf4 (Ras association (RalGDS/AF-6) domain family member 4)	1	normal viability with and without drug	1.02	0.91
Rassf4 (Ras association (RalGDS/AF-6) domain family member 4)	2	normal viability with and without drug	0.84	0.98
Rassf4 (Ras association (RalGDS/AF-6) domain family member 4)	3	normal viability with and without drug	0.99	0.98
Rassf4 (Ras association (RalGDS/AF-6) domain family member 4)	4	high viability only without drug	1.03	1.13
Pold3 (polymerase (DNA-directed), delta 3, accessory subunit)	1	normal viability with and without drug	0.72	0.9
Pold3 (polymerase (DNA-directed), delta 3, accessory subunit)	2	normal viability with and without drug	0.86	0.91
Pold3 (polymerase (DNA-directed), delta 3, accessory subunit)	3	normal viability with and without drug	0.8	0.93
Pold3 (polymerase (DNA-directed), delta 3, accessory subunit)	4	normal viability with and without drug	0.72	0.89
Tnfrsf13b (tumor necrosis factor receptor superfamily, member 13b)	1	normal viability with and without drug	0.92	1.07
Tnfrsf13b (tumor necrosis factor receptor superfamily, member 13b)	2	normal viability with and without drug	0.91	0.87
Tnfrsf13b (tumor necrosis factor receptor superfamily, member 13b)	3	normal viability with and without drug	0.97	0.98
Tnfrsf13b (tumor necrosis factor receptor superfamily, member 13b)	4	normal viability with and without drug	0.93	1.03
Rbm8a (RNA binding motif protein 8a)	1	low viability with and without drug	0.43	0.65
Rbm8a (RNA binding motif protein 8a)	2	low viability only with doxorubicin; normal without drug (active)	0.55	0.93
Rbm8a (RNA binding motif protein 8a)	3	low viability with and without drug	0.26	0.62
Rbm8a (RNA binding motif protein 8a)	4	low viability only with doxorubicin; normal without drug (active)	0.28	0.72
Or9s13 (olfactory receptor family 9 subfamily S member 13)	1	normal viability with and without drug	0.86	0.88
Or9s13 (olfactory receptor family 9 subfamily S member 13)	2	normal viability with and without drug	0.82	0.96
Or9s13 (olfactory receptor family 9 subfamily S member 13)	3	normal viability with and without drug	0.95	0.93
Or9s13 (olfactory receptor family 9 subfamily S member 13)	4	normal viability with and without drug	1.04	1.01
Bag1 (BCL2-associated athanogene 1)	1	normal viability with and without drug	1.06	0.96
Bag1 (BCL2-associated athanogene 1)	2	normal viability with and without drug	0.88	1
Bag1 (BCL2-associated athanogene 1)	3	normal viability with and without drug	1.04	0.94
Bag1 (BCL2-associated athanogene 1)	4	normal viability with and without drug	1.06	0.96
Psmb3 (proteasome (prosome, macropain) subunit, beta type 3)	1	low viability only with doxorubicin; normal without drug (active)	0.67	0.92
Psmb3 (proteasome (prosome, macropain) subunit, beta type 3)	2	normal viability with and without drug	0.86	0.85
Psmb3 (proteasome (prosome, macropain) subunit, beta type 3)	3	low viability only with doxorubicin; normal without drug (active)	0.68	0.88
Psmb3 (proteasome (prosome, macropain) subunit, beta type 3)	4	low viability with and without drug	0.34	0.7
Chmp1a (charged multivesicular body protein 1A)	1	normal viability with and without drug	0.9	0.97
Chmp1a (charged multivesicular body protein 1A)	2	low viability with and without drug	0.42	0.6
Chmp1a (charged multivesicular body protein 1A)	3	normal viability with and without drug	0.94	1.01
Chmp1a (charged multivesicular body protein 1A)	4	normal viability with and without drug	0.86	0.84
Rpl7a (ribosomal protein L7A)	1	low viability with and without drug	0.3	0.44
Rpl7a (ribosomal protein L7A)	2	low viability with and without drug	0.24	0.28
Rpl7a (ribosomal protein L7A)	3	low viability with and without drug	0.4	0.57
Rpl7a (ribosomal protein L7A)	4	low viability with and without drug	0.3	0.46

9 consecutive entries already listed, quoted:
gene	reagent	combined effect class	viability with doxorubicin, vs NT1	viability without drug, vs NT1
Med26 (mediator complex subunit 26)	3	normal viability with and without drug	0.76	0.89
Med26 (mediator complex subunit 26)	4	low viability with and without drug	0.34	0.6
Rassf4 (Ras association (RalGDS/AF-6) domain family member 4)	1	normal viability with and without drug	1.02	0.91
Rassf4 (Ras association (RalGDS/AF-6) domain family member 4)	2	normal viability with and without drug	0.84	0.98
Rassf4 (Ras association (RalGDS/AF-6) domain family member 4)	3	normal viability with and without drug	0.99	0.98
Rassf4 (Ras association (RalGDS/AF-6) domain family member 4)	4	high viability only without drug	1.03	1.13
Pold3 (polymerase (DNA-directed), delta 3, accessory subunit)	1	normal viability with and without drug	0.72	0.9
Pold3 (polymerase (DNA-directed), delta 3, accessory subunit)	2	normal viability with and without drug	0.86	0.91
Pold3 (polymerase (DNA-directed), delta 3, accessory subunit)	3	normal viability with and without drug	0.8	0.93
